# ± gives the standard deviation. This is a selection; strong and weak results do not stand in their true shares. Many entries were measured with a wide error.
# Test system: MIWI (PIWIL1) piRISC loaded with piRNA #1 (30 nt)
# Assay: pre-steady-state target cleavage rate (min^-1); MIWI and MILI are mouse PIWI proteins and EfPiwi is from a freshwater sponge; tags in brackets are library labels; higher = faster piRNA-guided slicing of the target
# Settings: guide: piRNA #1 5'p-UGAGGUAGUAGGUUGUAUAGUAUCCAGAGG; auxiliary factor: 500 nM mouse GTSF1
# Procedure, shortened: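 For Cleave-'n-Seq, a transcribed, DNA-blocked target RNA library […] met 1 nM active affinity-purified piRISC with one synthetic guide at 33 °C for 0–8 or 0–960 min in HEPES–potassium acetate buffer, with or without 500 nM GTSF1 partner protein. Uncleaved targets were sequenced and normalised to depth and weakly complementary targets, with three trials pooled and k3 capped at 0.0001 min^-1. A burst-and-steady-state fit supplied the pre-steady-state cleavage rate.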
# 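Note: 1 nM active piRISC with 0.1 nM target library at 33 °C single turnover.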
row,Sequence,pre-steady-state target cleavage rate
1,GCUCUGUGAUACUAUACAACCUACUACCUCA,1.81 ± 0.11
2,GGAGACCUAUGAUAUGUUGCUCUACCUCA,0.000139 ± 0.018
3,GGAGACCUAUGAUAACAACCUACUGACCUCA,0.000987 ± 0.0055
4,CCUUGGAUACUAUACAACCUACUACCUCA,2.26 ± 0.14
5,GCUCUAGGAUACUAUACAACCUACUACCUCA,1.85 ± 0.095
6,GGACUGGAAACUAUAGAACCUACUACCUCA,1.13 ± 0.08
7,GGUCUGGAUACUAUACUAACCUACUACCUCA,0.000886 ± 0.0065
8,GCUCUCGAUACAAUACAACCUACUACCUCA,2.07 ± 0.12
9,GGAGACCUAUGAUUACAACCUACUAACCUCA,0.00152 ± 0.0045
10,CCUUUGGAUACUAUACAACCUACUACCUCA,2.3 ± 0.12
11,CCUCUGGAUACUAUACAACCUACCUACCUCA,1.8 ± 0.11
12,GCUCUGGAUACUAUACAACUCUACUACCUCA,0.000764 ± 0.0083
13,GGAGACCUAUGAAUACAACCUACUACCUA,0.00141 ± 0.0049
14,GGACUGGAUAUUAUACAACCUACUACCUCA,1.62 ± 0.11
15,CCUGUGGUUACUAUACAACCUACUACCUCA,1.17 ± 0.058
16,GGAGACCUAUGAAUACAACCUACUACCUUCA,0.00113 ± 0.0034

# No new results follow: entries from further up.
row,Sequence,pre-steady-state target cleavage rate
5,GCUCUAGGAUACUAUACAACCUACUACCUCA,1.85 ± 0.095
6,GGACUGGAAACUAUAGAACCUACUACCUCA,1.13 ± 0.08

# Reference: the supplement of paper PMC10338343
